The data set has as its system T1, PrKstD (3-ketosteroid-Δ^1-dehydrogenase).
T1 construct: His-tagged recombinant, GenBank NLT29951.1
Description: steady-state kinetics of purified enzyme (PMS/DCPIP assay, Km). The format is biochemical, Propionibacterium sp.

Experimental findings from article PMC8950399, “A New 3-Ketosteroid-Δ^1–Dehydrogenase with High Activity and Broad Substrate Scope for Efficient Transformation of Hydrocortisone at High Substrate Concentration” (Microorganisms, 2022) are described below.

In general, Km refers to the substrate concentration at which the rate is half of its maximum.

The structures appear in SMILES notation.

For `CC(=O)OCC(=O)[C@@]1(O)CC[C@H]2[C@@H]3CCC4=CC(=O)CC[C@]4(C)[C@H]3[C@@H](O)C[C@@]21C` [compound 16, hydrocortisone acetate], the Km turned out to be 212 ± 17.2 µM.
With `C[C@]12CCC(=O)C=C1CC[C@@H]1[C@@H]2CC[C@]2(C)C(=O)CC[C@@H]12` [compound 1, 4-androstene-3,17-dione] the figure was 9.9 ± 1.8 µM; with `C[C@]12CCC(=O)C=C1CC[C@@H]1[C@@H]2[C@@H](O)C[C@@]2(C)[C@H]1CC[C@]2(O)C(=O)CO` [compound 15, hydrocortisone], 164 ± 11.6 µM; with `C[C@]12CCC(=O)C[C@@H]1CC[C@@H]1[C@@H]2CC[C@]2(C)[C@@H](O)CC[C@@H]12` [compound 5, 17β-Hydroxy-5α-androstan-3-one], 36.6 ± 3.6 µM.
In the case of `C[C@]12CC[C@H]3[C@@H](CCC4=CC(=O)CC[C@@H]43)[C@@H]1CCC2=O` [compound 6, norandrostenedione], the Km was 138 ± 9.3 µM.
In the case of `CC(=O)[C@@]1(O)CC[C@H]2[C@@H]3C[C@H](C)C4=CC(=O)CC[C@]4(C)[C@H]3[C@@H](O)C[C@@]21C` [compound 17, 11β,17-dihydroxy-6α-methyl-pregn-4-ene-3,20-dione], the Michaelis-Menten constant (Km) was found to be 343 ± 42.4 µM.
In the case of `C[C@H]1C[C@@H]2[C@H]([C@@H](O)C[C@@]3(C)[C@H]2CC[C@]3(O)C(=O)CO)[C@@]2(C)CCC(=O)C=C12` [compound 18, 6α-methyl-hydrocortisone], the Km stood at 443 ± 38.1 µM.
For `CC(=O)[C@H]1CC[C@H]2[C@@H]3CCC4=CC(=O)CC[C@]4(C)[C@H]3CC[C@]12C` [compound 10, progesterone], the Km is 31.9 ± 5.8 µM.
`C[C@]12CCC(=O)C=C1CC[C@@H]1[C@@H]2CC[C@@]2(C)[C@H]1CC[C@]2(O)C(=O)CO` [compound 13, cortexolone]: the Km worked out at 20.8 ± 4.2 µM.
On to `C[C@]12CCC(=O)C=C1CC[C@H]1[C@@H]3CCC(=O)[C@@]3(C)CC[C@@]12O` [compound 2, 9α-hydroxy-4-androsten-3,17-dione], for which the Km was 21.5 ± 2.7 µM.
